Record: PubChem BioAssay AID1259283 (Sanger Institute, 2017)

- Test: 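Kinases needed for HT115 growth and partners for drug synergy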 (primary screen)
- Cell system: HT115 colorectal cancer cells
- Reagents: siRNA pool against human genes
- Conditions: anchor drug given one day after siRNA: BYL719 at 1 µM, cetuximab at 5 µg/ml, trametinib at 10 nM, or DMSO vehicle alone
- Measured: 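Viability normalised to non-targeting pool #2 wells and averaged over replicates, robust z-score against control wells, and a synergy score for each of three drugs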
- Scale: robust z-score, knock-down alone: higher = more viable cells after knock-down; viability, DMSO vs non-targeting control: higher = more viable cells
- Rule for the call: 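a gene counts as essential when its robust z-score with knock-down alone is below -3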
- Calls: active = essential (z below -3, no drug); inactive = no change without drug
In all, the deposit lists 794 reagents; below is an unselected part. 14 of all reagents (1.8%) were called active. 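Calls reflect only viability loss without drug; drug synergy does not enter the call.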 Entries without a mark were called inactive. Viability is capped at 1. Not all columns of the deposit are shown. Reagent sequences are not shown. Not given: the amount of reagent, the time to read-out.

gene symbol | robust z-score, knock-down alone | viability, DMSO vs non-targeting control (fraction of control)
STK32C | 0.789 | 1
MERTK | 0.28 | 0.953
TEX14 | 0.789 | 1
STRADB | -1.81 | 0.76
MAP3K21 | -0.451 | 0.885
CDK10 | -0.389 | 0.891
TAF1 | -1.43 | 0.795
MAPK8 | 0.587 | 0.981
RPS6KL1 | 0.747 | 0.996
CALM2 | -0.162 | 0.912
STKLD1 | 0.0842 | 0.935
BPTF | -0.878 | 0.846
PRKCG | 0.789 | 1
CSNK1G3 | 0.789 | 1
HSPB8 | 0.406 | 0.965
PRKG2 | 0.447 | 0.968
ARID1A | 0.789 | 1
DIS3 | 0.789 | 1
SRPK1 | -0.135 | 0.915
PRKCZ | -0.335 | 0.896

As entered above.
RPS6KL1, robust z-score, knock-down alone → 0.747
TEX14, viability, DMSO vs non-targeting control (fraction of control) = 1
For “robust z-score, knock-down alone”, TAF1 shows -1.43
For “viability, DMSO vs non-targeting control (fraction of control)”, PRKG2 reads 0.968

Continued:
gene symbol | robust z-score, knock-down alone | viability, DMSO vs non-targeting control (fraction of control)
BUB1B | -0.0376 | 0.924
DGKQ | -1.88 | 0.753
PLK1 | -6.94 (active) | 0.286
BTK | 0.425 | 0.966
PIK3C3 | 0.694 | 0.991
CNOT1 | -3.9 (active) | 0.567
PRKACB | -0.969 | 0.838
CSNK1G1 | 0.789 | 1
PDGFRA | 0.0509 | 0.932
PDPK1 | -0.437 | 0.887
PRKAB2 | -0.106 | 0.917
ROR2 | 0.789 | 1
NRBP1 | 0.789 | 1
VRK2 | 0.299 | 0.955
